The text below walks through data of paper PMC6450892.

Amino acid sequences for entries named in this document (tags omitted). A change or cut given only in a name is not applied to a line headed by its entry.
UniProt O75376: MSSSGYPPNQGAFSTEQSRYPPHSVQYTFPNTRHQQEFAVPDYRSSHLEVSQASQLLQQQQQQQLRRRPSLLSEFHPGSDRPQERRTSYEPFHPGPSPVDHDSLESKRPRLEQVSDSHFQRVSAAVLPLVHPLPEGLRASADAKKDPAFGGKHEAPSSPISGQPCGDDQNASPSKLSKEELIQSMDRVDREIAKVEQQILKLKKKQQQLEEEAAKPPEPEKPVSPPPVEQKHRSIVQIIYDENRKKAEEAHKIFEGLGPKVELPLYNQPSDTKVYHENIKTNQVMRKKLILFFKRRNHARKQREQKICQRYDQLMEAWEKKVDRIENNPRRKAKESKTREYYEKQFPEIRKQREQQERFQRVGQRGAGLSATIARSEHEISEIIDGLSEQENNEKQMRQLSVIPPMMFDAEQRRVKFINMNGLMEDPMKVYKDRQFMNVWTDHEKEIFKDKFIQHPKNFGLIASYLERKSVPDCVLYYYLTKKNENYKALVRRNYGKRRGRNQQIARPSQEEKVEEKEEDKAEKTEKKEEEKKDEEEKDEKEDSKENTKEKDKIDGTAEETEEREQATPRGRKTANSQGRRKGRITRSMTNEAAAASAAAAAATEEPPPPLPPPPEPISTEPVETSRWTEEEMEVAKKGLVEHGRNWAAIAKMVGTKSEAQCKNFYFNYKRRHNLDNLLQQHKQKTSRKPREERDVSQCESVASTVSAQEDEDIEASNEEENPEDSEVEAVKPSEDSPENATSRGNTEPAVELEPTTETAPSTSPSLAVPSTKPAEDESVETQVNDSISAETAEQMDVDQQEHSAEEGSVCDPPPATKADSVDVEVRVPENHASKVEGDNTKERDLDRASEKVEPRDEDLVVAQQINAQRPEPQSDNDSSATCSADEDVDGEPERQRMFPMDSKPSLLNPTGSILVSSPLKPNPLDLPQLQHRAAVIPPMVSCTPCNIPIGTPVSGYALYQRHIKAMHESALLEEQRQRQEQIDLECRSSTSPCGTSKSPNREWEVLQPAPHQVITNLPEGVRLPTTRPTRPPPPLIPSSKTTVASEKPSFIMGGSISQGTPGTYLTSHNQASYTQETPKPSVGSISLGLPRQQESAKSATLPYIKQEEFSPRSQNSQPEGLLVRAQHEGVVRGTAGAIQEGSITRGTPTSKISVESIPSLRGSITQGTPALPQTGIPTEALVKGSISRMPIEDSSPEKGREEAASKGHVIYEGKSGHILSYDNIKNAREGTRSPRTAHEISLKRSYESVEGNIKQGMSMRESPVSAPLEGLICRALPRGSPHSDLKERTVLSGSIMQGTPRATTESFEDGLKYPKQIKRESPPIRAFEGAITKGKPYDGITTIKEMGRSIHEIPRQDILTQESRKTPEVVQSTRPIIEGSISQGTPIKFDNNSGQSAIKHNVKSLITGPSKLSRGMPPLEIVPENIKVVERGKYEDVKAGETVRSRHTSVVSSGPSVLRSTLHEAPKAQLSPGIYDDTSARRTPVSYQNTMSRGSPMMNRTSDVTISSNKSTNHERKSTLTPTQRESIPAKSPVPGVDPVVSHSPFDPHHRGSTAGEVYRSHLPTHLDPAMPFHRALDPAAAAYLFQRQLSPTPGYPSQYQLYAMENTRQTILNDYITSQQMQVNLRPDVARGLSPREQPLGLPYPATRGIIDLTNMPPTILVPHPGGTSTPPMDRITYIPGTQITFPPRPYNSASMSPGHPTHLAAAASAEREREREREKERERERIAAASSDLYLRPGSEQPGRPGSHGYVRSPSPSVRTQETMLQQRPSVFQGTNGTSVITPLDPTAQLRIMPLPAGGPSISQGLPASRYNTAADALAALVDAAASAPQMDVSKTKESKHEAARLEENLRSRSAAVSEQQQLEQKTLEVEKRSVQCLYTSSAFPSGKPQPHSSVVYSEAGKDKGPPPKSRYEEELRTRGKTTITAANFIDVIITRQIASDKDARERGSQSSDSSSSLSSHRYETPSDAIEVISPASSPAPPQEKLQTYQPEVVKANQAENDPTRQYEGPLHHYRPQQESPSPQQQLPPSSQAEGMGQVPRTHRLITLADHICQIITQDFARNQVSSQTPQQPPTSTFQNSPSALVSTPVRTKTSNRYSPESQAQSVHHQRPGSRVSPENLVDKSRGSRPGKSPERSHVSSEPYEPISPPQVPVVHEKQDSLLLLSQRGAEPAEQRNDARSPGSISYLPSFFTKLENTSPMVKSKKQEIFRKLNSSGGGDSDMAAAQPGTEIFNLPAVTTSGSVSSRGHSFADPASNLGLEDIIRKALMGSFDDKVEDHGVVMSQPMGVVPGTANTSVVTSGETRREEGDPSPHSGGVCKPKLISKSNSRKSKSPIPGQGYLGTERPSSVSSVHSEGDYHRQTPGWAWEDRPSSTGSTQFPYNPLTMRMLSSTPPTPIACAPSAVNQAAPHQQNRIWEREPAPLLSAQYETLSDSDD

Results are given in words; binding and its absence hold for the method and conditions named. Binding seen in cells or lysates may run through a third protein. Some results given as binding are weak or reduced against the parent protein; the word gives no strength.

Test [1] has as its target One-Strep-FLAG-tagged GABARAP (gamma-aminobutyric acid receptor-associated protein) (UniProt O95166). Nature of the test: pull-down; OSF-GABARAP co-expressed with a FLAG-tagged NCoR1 construct in HEK293T; lysate at 48 h in TNE buffer precipitated with Strep-Tactin Sepharose at 4 °C for 2 h; washed with TNE containing 1.0 M NaCl; immunoblot. On the technique in general: A western blot detects proteins with antibodies after separation by electrophoresis.

For test [2] the target is unchanged. The test is described as follows: pull-down; OSF-GABARAP immobilized on Strep-Tactin Sepharose mixed with lysates of cells expressing each NCoR1-deletion mutant, 4 °C for 2 h; washed with TNE containing 1.0 M NaCl; anti-FLAG immunoblot; only the target purified.
The target is the same in test [3]. Nature of the test: pull-down; OSF-tagged LC3B or a GABARAP family protein expressed alone in HEK293T; lysate in TNE buffer (20 mM Tris-Cl pH 7.5, 0.5% NP-40, 150 mM NaCl, 1 mM EDTA, 1 mM DTT) incubated with Strep-Tactin Sepharose at 4 °C for 2 h; washed with TNE containing 1.0 M NaCl; immunoblot of the cells' own NCoR1, ULK1 and p62.
The target in test [4] is One-Strep-FLAG-tagged gamma-aminobutyric acid receptor-associated protein-like 2 (GABARAPL2) (UniProt P60520). Described as above.

In the case of “FLAG-tagged NCoR1 (wild type) (from UniProt O75376 1-2440)”, the binding entry in test [1] is “binds”. Turning to “FLAG-tagged NCoR1 N1 (amino acids 1–370) (from UniProt O75376 1-370) (domain or fragment)”, the binding result in test [2] was “binds”. Take “FLAG-tagged NCoR1 N (aa 1–674) (from UniProt O75376 1-674) (domain or fragment)”: the binding result in test [1] is listed as “binds”. On to “FLAG-tagged NCoR1 ΔC (aa 1–1149) (from UniProt O75376 1-1149) (domain or fragment)”, for which the binding entry in test [1] is listed as “binds”. As to “nuclear receptor co-repressor 1 (NCoR1), endogenous (from UniProt O75376 1-2440)”, the binding entry in test [3] and in test [4] was “binds” in each case. Turning to “p62/SQSTM1, endogenous (from UniProt Q13501 1-440)”, the binding entry in test [4] was “binds”.
